Measured values: patent US10036034B2, “Sequences involved in plant yield and methods of using” (NUtech Ventures, priority 2014, dated 2018)
At least one structure is not confirmed: it was looked up by name or label, or the drawing left a doubt.

Test system: TL and P76 seedlings
Assay: Effect of Gibberellin A3 (GA3) on lateral root density of wheat seedlings in WW and LW conditions
Type: in vivo
Details: mean ± s.d., n = 30
Excerpt: For the early seedling stage root screening we used the cigar roll method (Zhu et al., 2006, TAG, 113:1-10). Similar sized seeds were germinated in a petri dish with moist paper towel for three days in the dark at 22-2S° C. Three seedlings per genotype were placed between two sheets of germination paper and rolled vertically. Three batches of 10 cigar rolls, totaling 30 plants per genotype were soaked in tap water and placed vertically in 1 L beaker filled with SO mL of water. Seedlings were grown in a controlled environment using a Percival Intellus Control System incubator (Model: I36VLC8) set at 25/27° C., 11.5/12.5 h day/night, 50/70% relative humidity and illumination of 80 μmols m^−2 sec^−1 during the duration of the experiments (Percival Scientific, Inc., Iowa). Water was added to each beaker twice daily to maintain the volume of 50 ml. All measurements were carried until 6 days after germination. […] The total number of lateral roots (>1 mm) on the primary root axis were counted, and lateral root density was calculated by dividing the number of lateral roots on the primary root axis by the primary root length. Statistical significance was determined using a one-way ANOVA using Tukeys method. […] Given the positive impact of exogenous GA on lateral roots, we measured the endogenous GA level in 6 d seedling roots. […]

Q: `C=C1C[C@]23C[C@@]1(O)CC[C@H]2[C@@]12C=C[C@H](O)[C@@](C)(C(=O)O1)[C@H]2[C@@H]3C(=O)O` [GA3, Gibberellin A3] was tested. Which “Primary Root Length” value did it give?
A: 27 2 ± 2.2 cm
